Some of the results follow. The main result of the screen is listed elsewhere. These columns were measured beside it and carry no call. Most of these compounds were active or inconclusive in the main read-out, so they are no random draw. The note in brackets gives the kind of curve behind each potency; many fits are weak. Peptide text beside a SMILES is read from it. * marks the point of attachment. Cbz = O=C(OCc1ccccc1)*

One may read the AC50 as the concentration giving half of the maximal activity seen.

A short description of this assay: Cell signaling CRE-BLA (Fsk stim). The settings on record: CHO CRE-bla reporter (cAMP response element driving beta-lactamase), forskolin EC10, beta-lactamase ratio; measured here: 460 nm blue channel. The gist of the method: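 qHTS titration format; CRE-bla CHO reporter; stimulus EC10 NKH 477, a water-soluble forskolin. Read: CCF4 460/530 nm ratio. Potency expressed as AC50 for activators or inhibitors.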
As for `O=C(O)c1cccnc1C(=O)O`, the AC50 was 31.6 µM [falling, single point].
With `Cc1ccc(-c2csc3ncnc(-n4nc(C)cc4N)c23)cc1`, the AC50 was 25.1 µM [rising, single point].
Take `N#Cc1cc2ccccc2nc1SCc1cccnc1`: the AC50 was 10 µM [rising, partial curve].
For `COCC(=O)N(Cc1cc2cc(OC)ccc2[nH]c1=O)c1ccc(C)cc1` the value was 5.01 µM [falling, single point]; for `CCN1CCC[C@H]1CNC(=O)c1c(O)c(Cl)cc(Cl)c1OC`, 25.1 µM [falling, single point]; for `COc1ccc(S(=O)(=O)N2CCC(C(=O)Nc3nnc(CCN4CCCCC4)s3)CC2)cc1`, 0.00794 µM [falling, full curve, poor fit].
For the compound `Cc1cc(C)n(-c2ccc(C(=O)OCC(=O)c3c(N)n(C)c(=O)n(C)c3=O)cc2)n1`, the AC50 was 3.16 µM [rising, full curve].
Regarding `O=C(Oc1ccc2ccccc2c1)c1ccco1`, the AC50 was 1.58 µM [falling, partial curve, poor fit].
Turning to `c1cn(-c2cc(-c3ccc4c(c3)OCO4)ncn2)cn1`, the AC50 was 5.01 µM [rising, full curve].
`CCN1C(=O)c2cccc3c(NC(=O)c4ccc5c(c4)OCCO5)ccc1c23`: the AC50 is 3.98 µM [rising, full curve].
Take `Cc1cc(-n2nc(C)cc2C)n2ncc(-c3ccccc3)c2n1`: the AC50 is 1.58 µM [falling, full curve].
For `CCOC(=O)c1c(C)nc(-c2ccccc2)nc1N` the value was 12.6 µM [rising, partial curve]; for `C=CCOc1cccc(C2C(C(=O)c3ccco3)=C(O)C(=O)N2CCN(CC)CC)c1` (stereo not drawn), 3.98 µM [falling, partial curve]; for `CN(Cc1ccccc1)Cc1nc2c([nH]1)c(=O)[nH]c(=O)n2C`, 0.158 µM [falling, partial curve, poor fit].
For `CC(C)(C)OC(=O)N[C@@H](Cc1ccccc1)c1nnc(S(=O)(=O)Cc2ccccc2)o1` the value was 6.31 µM [falling, partial curve].
On to `COc1ccc(-c2nc(C#N)c(N3CCCCCC3)o2)cc1`, for which the AC50 was 5.01 µM [rising, partial curve].
For the compound `CCN1CCN(CCCNc2ncnc3nc[nH]c23)CC1`, the AC50 is 2.51 µM [rising, full curve].
For `COc1cc2sc(C)nc2c2sccc12`, the AC50 was 1 µM [rising, partial curve].
As for `O=C(NCCc1csc(-c2ccccc2)n1)c1cccs1`, the AC50 is 3.98 µM [falling, partial curve].
As for `CN(C)Cc1cn(CCC(=O)O)c2ccccc12`, the AC50 was 5.01 µM [falling, partial curve].
Regarding `CN1CCN(c2ncc3nc(-c4ccccc4)c(=O)n(C4CC4)c3n2)CC1`, the AC50 was 10 µM [rising, partial curve].
Take `COc1cccc(-c2cc(C(=O)N3CCCCC3C)no2)c1` (stereo not drawn): the AC50 was 1 µM [rising, full curve, poor fit].
For `CCOc1ccc(C2=Nn3c(nnc3-c3ccc(OC)cc3)SC2)cc1` the value was 10 µM [rising, partial curve]; for `CC(C)CCn1c(SCc2ccc(Cl)cc2)nc2c1c(=O)[nH]c(=O)n2C`, 1.26 µM [rising, full curve]; for `CC(C)C(NC(=O)OCc1ccccc1)C(=O)OCC(=O)N1C(C)CCCC1C` (stereo not drawn), 5.01 µM [falling, single point].
In the case of `COC(=O)c1ccccc1NC(=O)C(C)Oc1ccccc1` (stereo not drawn), the AC50 was 2.51 µM [rising, full curve].
`N#Cc1ccc(NC(=O)c2cc3cc4c5c(c3oc2=N)CCCN5CCC4)cc1`: the AC50 was 10 µM [rising, partial curve].
On to `Cc1cc(C(=O)OCC(=O)NCc2ccco2)c(C)n1-c1ccccc1`, for which the AC50 is 25.1 µM [rising, single point].
For the compound `COC(=O)CCC(NC(=O)OCc1ccccc1)C(=O)NC(CC(C)C)C(=O)OC` (stereo not drawn) (Cbz-Glu(OMe)-Leu-OMe; configuration not given here), the AC50 is 0.00794 µM [falling, full curve, poor fit].
For `CN(C)c1ccc(-c2nccc(NCc3ccccc3)n2)cc1` the value was 3.16 µM [rising, single point].
For `CCCCCOC(=O)c1ccc(NC(=O)c2ccco2)cc1` the value was 12.6 µM [rising, partial curve]; for `Cc1cnnc2c1-c1no[n+]([O-])c1CC2`, 0.00631 µM [falling, full curve, poor fit].
With `C=CCn1c(SCC(=O)NCc2ccco2)nc2sc3c(c2c1=O)CCC3`, the AC50 was 12.6 µM [rising, single point].
`COc1cccc(Cn2c(C3CC3)nc3ccc(NC(=O)c4ccco4)cc3c2=O)c1`: the AC50 is 0.398 µM [rising, partial curve].
Turning to `Cc1ccc(S(=O)(=O)N2CCN(C)CC2)cc1-c1nnc2c3ccccc3c(C)nn12`, the AC50 is 10 µM [rising, partial curve].
As to `COc1cc2c(cc1OC)-c1cc(OCc3cccnc3)nc(=O)n1CC2`, the AC50 is 7.94 µM [rising, partial curve].
For the compound `Cc1ccc(-c2nc3ncccn3c2Nc2ccc3c(c2)OCCO3)o1`, the AC50 was 3.98 µM [falling, partial curve].
`CCOC(=O)c1ccc2[nH]c3c(c2c1)CCCCC3=O`: the AC50 is 6.31 µM [rising, partial curve].
`COc1ccccc1-n1c(SCC(=O)Nc2nnc(C)s2)nc2c(c1=O)SCC2`: the AC50 is 12.6 µM [rising, single point].
Regarding `O=C(c1ccc(Cl)cc1)N1CCN(c2nc(N3CCCCC3)nc(N3CCCCC3)n2)CC1`, the AC50 was 0.316 µM [rising, full curve].
For `COc1ccc(N2C(=O)CCC(C(=O)c3ccccc3)=C2C)cc1` the value was 1 µM [falling, partial curve, poor fit]; for `CCc1ccc2[nH]c(=O)c(CN(Cc3ccccc3)Cc3nnnn3Cc3ccco3)cc2c1`, 25.1 µM [falling, single point].
`COCCNC(=O)Cn1cnc2c1c(=O)n(C)c(=O)n2C`: the AC50 was 0.251 µM [falling, full curve].
